Construct, isoform or probe ends are uncertain for at least one entry. For some assays here: A weaker result is weaker than the reference pair of the same experiment. At least one verdict rests on a figure or table, not on a statement of the authors.
Tests used:
SERF1a K17E (human) = experiment: FRET RNA annealing; conditions: Kobs 0.033 s-1; recombinant protein; label: Cy3 and Cy5
SERF1a (human) = experiment: FRET RNA annealing; conditions: Kobs 0.062 s-1 vs 0.0056 s-1 without protein

Does “ACUGCUAGAGAUUUUCCACAU / AUGUGGAAAAUCUCUAGCAGU [Cy3-R21(-) + Cy5-R21(+) annealing pair]” bind (SERF1a K17E (human))?
Result: binds more weakly

Does “ACUGCUAGAGAUUUUCCACAU / AUGUGGAAAAUCUCUAGCAGU [Cy3-R21(-) + Cy5-R21(+) annealing pair]” bind (SERF1a (human))?
Result: binds

Source: doi:10.1101/713511
